According to paper PMC12441857, “Cannabinoid CB1 Receptor Activation Mitigates N‑Methyl‑D‑aspartate Receptor-Mediated Neurotoxicity” (ACS Pharmacology & Translational Science, 2025):
These are yes or no findings as the source states them, for the method shown. In cells and extracts the contact can be indirect. Some binding calls cover weakened binding; strength is not graded here.

The chains behind the UniProt entries cited, without tags or fusion partners.
UniProt P21554: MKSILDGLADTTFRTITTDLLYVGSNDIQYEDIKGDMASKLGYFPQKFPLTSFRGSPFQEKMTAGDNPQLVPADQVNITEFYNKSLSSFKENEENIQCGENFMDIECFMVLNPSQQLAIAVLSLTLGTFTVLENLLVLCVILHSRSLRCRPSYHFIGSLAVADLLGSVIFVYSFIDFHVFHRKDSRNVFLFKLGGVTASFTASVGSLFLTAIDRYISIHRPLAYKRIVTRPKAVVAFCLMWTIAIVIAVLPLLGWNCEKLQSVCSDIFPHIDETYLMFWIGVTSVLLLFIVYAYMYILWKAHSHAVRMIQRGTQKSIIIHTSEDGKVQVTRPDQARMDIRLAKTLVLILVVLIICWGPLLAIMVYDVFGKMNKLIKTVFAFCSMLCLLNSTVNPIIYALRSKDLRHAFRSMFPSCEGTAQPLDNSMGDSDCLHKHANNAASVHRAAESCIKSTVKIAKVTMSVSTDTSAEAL
UniProt P32121: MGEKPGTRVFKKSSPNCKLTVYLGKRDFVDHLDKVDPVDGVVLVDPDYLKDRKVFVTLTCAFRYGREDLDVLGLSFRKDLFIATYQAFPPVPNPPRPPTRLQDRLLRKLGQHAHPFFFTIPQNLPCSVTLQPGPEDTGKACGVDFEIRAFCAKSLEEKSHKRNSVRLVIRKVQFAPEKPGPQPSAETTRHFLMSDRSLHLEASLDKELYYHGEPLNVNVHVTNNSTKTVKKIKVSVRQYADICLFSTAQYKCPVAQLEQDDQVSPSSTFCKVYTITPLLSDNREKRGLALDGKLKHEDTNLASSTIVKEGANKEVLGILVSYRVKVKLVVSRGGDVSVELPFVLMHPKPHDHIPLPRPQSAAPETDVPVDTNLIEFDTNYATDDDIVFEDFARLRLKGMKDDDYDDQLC

Assays:
[1] = biological target: cannabinoid CB1 receptor fused to YFP (CB1R-YFP) (human) (UniProt P21554); test: FRET or BRET; ß-arrestin-2 recruitment BRET in HEK-293T cells 48 h after transfection with CB1R-YFP, N1, N2B and ß-arrestin-2-Rluc; antagonists (SR141617 or MK-801) 10 min, then agonists (ACEA and/or NMDA) or vehicle, coelenterazine H
[2] = biological target: N1 subunit of the NMDA receptor, endogenous in mouse primary cells (mouse (endogenous in primary microglia and neurons)) (UniProt P35438); test: proximity ligation; Duolink II in situ PLA on fixed, permeabilised mouse primary cortical and hippocampal neurons with rat monoclonal anti-N1 and rabbit polyclonal anti-CB1R; untreated, treated with Abeta1-42 oligomers (500 nM, 48 h), and neurons from APPSw/Ind mice
[3] = biological target: N1 subunit of the NMDA receptor, endogenous in mouse primary cells (mouse (endogenous in primary microglia and neurons)) (UniProt P35438); test: proximity ligation; Duolink II in situ PLA on fixed, permeabilised mouse primary microglia with rat monoclonal anti-N1 and rabbit polyclonal anti-CB1R; naive/resting cells, cells activated with 1 uM LPS and 200 U/mL IFN-gamma, and naive/resting cells from APPSw/Ind mice

binding [1] | binding [2] | binding [3] | Substance
binds |  |  | ß-arrestin-2 fused to Rluc (ß-arrestin-2-Rluc) (from UniProt P32121 1-409)
 | binds | binds | cannabinoid CB1 receptor, endogenous in mouse primary cells (from UniProt P47746 1-473)
